From patent publication US8486950B2, “Janus kinase inhibitor compounds and methods” (F. Hoffmann-La Roche AG, priority 2009, dated 2013)
Some entries share one result that the patent states for a list of compounds.

Target: T1, TYK2 kinase domain (Homo sapiens, UniProt P29597)
T1 construct: made in house; host or cells: SF9 insect cells (recombinant baculovirus)
T1 sequence (P29597 873-1187): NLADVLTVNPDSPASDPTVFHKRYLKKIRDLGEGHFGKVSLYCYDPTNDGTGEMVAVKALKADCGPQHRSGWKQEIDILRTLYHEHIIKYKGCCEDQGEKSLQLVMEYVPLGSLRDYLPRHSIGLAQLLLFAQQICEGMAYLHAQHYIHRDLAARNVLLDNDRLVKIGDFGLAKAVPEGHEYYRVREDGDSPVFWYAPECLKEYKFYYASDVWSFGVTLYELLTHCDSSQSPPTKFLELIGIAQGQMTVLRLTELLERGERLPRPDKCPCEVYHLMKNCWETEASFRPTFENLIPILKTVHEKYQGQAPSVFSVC
Experiment: TYK2 inhibition assay (Caliper LabChip, isolated kinase domain)
Assay type: biochemical
Conditions: 25 uM ATP, values given as 'about'

**Q.** With `CS(=O)(=O)N1CCN(c2ccc(Nc3cc(NC(=O)c4c(Cl)cccc4Cl)ccn3)nc2)CC1` [Example 492, 2,6-dichloro-N-(2-(5-(4-(methylsulfonyl)piperazin-1-yl)pyridin-2-ylamino)pyridin-4-yl)benzamide] as the compound, how does the Ki read?
**A.** The Ki was under 3.5 µM.

**Q.** `Cc1cc(Nc2cc(NC(=O)c3c(Cl)cccc3Cl)ccn2)nc(N2CCC(F)CC2)n1` [Example 493, 2,6-dichloro-N-(2-(2-(4-fluoropiperidin-1-yl)-6-methylpyrimidin-4-ylamino)pyridin-4-yl)benzamide] was tested. Which Ki did it give?
**A.** Its Ki is under 3.5 µM.

**Q.** `Cc1cc(Nc2cc(NC(=O)c3c(Cl)cccc3Cl)ccn2)nc(N2CC(O)C2)n1` [Example 494, 2,6-dichloro-N-(2-(2-(3-hydroxyazetidin-1-yl)-6-methylpyrimidin-4-ylamino)pyridin-4-yl)benzamide] was tested. Which Ki did it give?
**A.** Its Ki is under 3.5 µM.

**Q.** Which Ki does the source give for `Cc1cc(Nc2cc(NC(=O)c3c(Cl)cccc3Cl)ccn2)nc(N)n1` [Example 495, N-(2-(2-amino-6-methylpyrimidin-4-ylamino)pyridin-4-yl)-2,6-dichlorobenzamide] here?
**A.** The Ki was under 3.5 µM.

**Q.** With `CNc1nc(C)cc(Nc2cc(NC(=O)c3c(Cl)cccc3Cl)ccn2)n1` [Example 496, 2,6-dichloro-N-(2-(6-methyl-2-(methylamino)pyrimidin-4-ylamino)pyridin-4-yl)benzamide] as the compound, how does the Ki read?
**A.** The Ki was under 3.5 µM.

**Q.** `Cc1cc(Nc2cc(NC(=O)c3c(Cl)cccc3Cl)ccn2)nc(NC(C)C)n1` [Example 497, 2,6-dichloro-N-(2-(2-(isopropylamino)-6-methylpyrimidin-4-ylamino)pyridin-4-yl)benzamide] was tested. Which Ki did it give?
**A.** The Ki was under 3.5 µM.

**Q.** Which Ki does the source give for `CCc1cc(Nc2cc(NC(=O)c3c(Cl)cccc3Cl)ccn2)nc(N(C)C)n1` [Example 498, 2,6-dichloro-N-(2-(2-(dimethylamino)-6-ethylpyrimidin-4-ylamino)pyridin-4-yl)benzamide] here?
**A.** Its Ki is under 3.5 µM.

**Q.** `CCc1cc(Nc2cc(NC(=O)c3c(Cl)cccc3Cl)ccn2)nc(N2CCOCC2)n1` [Example 499, 2,6-dichloro-N-(2-(6-ethyl-2-morpholinopyrimidin-4-ylamino)pyridin-4-yl)benzamide] was tested. Which Ki did it give?
**A.** Its Ki is under 3.5 µM.

**Q.** Which Ki does the source give for `CC(C)c1cc(Nc2cc(NC(=O)c3c(Cl)cccc3Cl)ccn2)nc(N(C)C)n1` [Example 500, 2,6-dichloro-N-(2-(2-(dimethylamino)-6-isopropylpyrimidin-4-ylamino)pyridin-4-yl)benzamide] here?
**A.** Its Ki is under 3.5 µM.

**Q.** Which Ki does the source give for `Cc1cc(Nc2cc(NC(=O)c3c(Cl)cccc3Cl)ccn2)nc(NCCO)n1` [Example 502, 2,6-dichloro-N-(2-(2-(2-hydroxyethylamino)-6-methylpyrimidin-4-ylamino)pyridin-4-yl)benzamide] here?
**A.** The Ki was under 3.5 µM.

**Q.** `Cc1cc(Nc2cc(NC(=O)c3c(Cl)cccc3Cl)ccn2)nc(N(C)CCO)n1` [Example 503, 2,6-dichloro-N-(2-(2-((2-hydroxyethyl)(methyl)-amino)-6-methylpyrimidin-4-ylamino)pyridin-4-yl)benzamide] was tested. Which Ki did it give?
**A.** Its Ki is under 3.5 µM.

**Q.** Which Ki does the source give for `Cc1cc(Nc2cc(NC(=O)c3c(Cl)cccc3Cl)ccn2)nc(NC(C)(C)CO)n1` [Example 504, 2,6-dichloro-N-(2-(2-(1-hydroxy-2-methylpropan-2-ylamino)-6-methylpyrimidin-4-ylamino)pyridin-4-yl)benzamide] here?
**A.** The Ki was under 3.5 µM.

**Q.** For `Cc1cc(Nc2cc(NC(=O)c3c(Cl)cccc3Cl)ccn2)nc(NCC(C)O)n1` (centres unmarked) [Example 506, 2,6-dichloro-N-(2-(2-(2-hydroxypropylamino)-6-methylpyrimidin-4-ylamino)pyridin-4-yl)benzamide], which Ki is on record?
**A.** Its Ki is under 3.5 µM.

**Q.** Which Ki does the source give for `Cc1cc(Nc2cc(NC(=O)c3c(Cl)cccc3Cl)ccn2)nc(NC2CC2)n1` [Example 507, 2,6-dichloro-N-(2-(2-(cyclopropylamino)-6-methylpyrimidin-4-ylamino)pyridin-4-yl)benzamide] here?
**A.** The Ki was under 3.5 µM.

**Q.** Which Ki does the source give for `Cc1cc(Nc2cc(NC(=O)c3c(Cl)cccc3Cl)ccn2)nc(NCC2CC2)n1` [Example 508, 2,6-dichloro-N-(2-(2-(cyclopropylmethylamino)-6-methylpyrimidin-4-ylamino)pyridin-4-yl)benzamide] here?
**A.** The Ki was under 3.5 µM.

**Q.** Which Ki does the source give for `Cc1cc(Nc2cc(NC(=O)c3c(Cl)cccc3Cl)ccn2)nc(N2CCC[C@@H](O)C2)n1` [Example 509, (R)-2,6-dichloro-N-(2-(2-(3-hydroxypiperidin-1-yl)-6-methylpyrimidin-4-ylamino)pyridin-4-yl)benzamide] here?
**A.** The Ki was under 3.5 µM.

**Q.** How did the Ki turn out when `Cc1cc(Nc2cc(NC(=O)c3c(Cl)cccc3Cl)ccn2)nc(N2CC(C)OC(C)C2)n1` (centres unmarked) [Example 510, 2,6-dichloro-N-(2-(2-(2,6-dimethylmorpholino)-6-methylpyrimidin-4-ylamino)pyridin-4-yl)benzamide] was run?
**A.** The Ki was under 3.5 µM.

**Q.** With `CCc1cc(Nc2cc(NC(=O)c3c(Cl)cccc3Cl)ccn2)nc(N(C)CCO)n1` [Example 511, 2,6-dichloro-N-(2-(6-ethyl-2-((2-hydroxyethyl)(methyl)-amino)pyrimidin-4-ylamino)pyridin-4-yl)benzamide] as the compound, how does the Ki read?
**A.** The Ki was under 3.5 µM.

**Q.** With `Cc1cc(Nc2cc(NC(=O)c3c(Cl)cccc3Cl)ccn2)nc(N2CCC(F)(F)CC2)n1` [Example 512, 2,6-dichloro-N-(2-(2-(4,4-difluoropiperidin-1-yl)-6-methylpyrimidin-4-ylamino)pyridin-4-yl)benzamide] as the compound, how does the Ki read?
**A.** Its Ki is under 3.5 µM.

**Q.** For `Cc1cc(Nc2cc(NC(=O)c3c(Cl)cccc3Cl)ccn2)nc(N(CCO)CCO)n1` [Example 513, N-(2-(2-(bis(2-hydroxyethyl)amino)-6-methylpyrimidin-4-ylamino)pyridin-4-yl)-2,6-dichlorobenzamide], which Ki is on record?
**A.** The Ki was under 3.5 µM.

**Q.** With `CCc1cc(Nc2cc(NC(=O)c3c(Cl)cccc3Cl)ccn2)nc(N2CCN(C)CC2)n1` [Example 514, 2,6-dichloro-N-(2-(6-ethyl-2-(4-methylpiperazin-1-yl)pyrimidin-4-ylamino)pyridin-4-yl)benzamide] as the compound, how does the Ki read?
**A.** Its Ki is under 3.5 µM.

**Q.** With `CCc1cc(Nc2cc(NC(=O)c3c(Cl)cccc3Cl)ccn2)nc(N2CC(O)C2)n1` [Example 515, 2,6-dichloro-N-(2-(6-ethyl-2-(3-hydroxyazetidin-1-yl)pyrimidin-4-ylamino)pyridin-4-yl)benzamide] as the compound, how does the Ki read?
**A.** Its Ki is under 3.5 µM.

**Q.** How did the Ki turn out when `CCc1cc(Nc2cc(NC(=O)c3c(Cl)cccc3Cl)ccn2)nc(NC2CC2)n1` [Example 516, 2,6-dichloro-N-(2-(2-(cyclopropylamino)-6-ethylpyrimidin-4-ylamino)pyridin-4-yl)benzamide] was run?
**A.** Its Ki is under 3.5 µM.

**Q.** How did the Ki turn out when `CC(C)c1cc(Nc2cc(NC(=O)c3c(Cl)cccc3Cl)ccn2)nc(N2CCN(C)CC2)n1` [Example 517, 2,6-dichloro-N-(2-(6-isopropyl-2-(4-methylpiperazin-1-yl)pyrimidin-4-ylamino)pyridin-4-yl)benzamide] was run?
**A.** The Ki was under 3.5 µM.

**Q.** `CC(C)c1cc(Nc2cc(NC(=O)c3c(Cl)cccc3Cl)ccn2)nc(N2CCN(CCO)CC2)n1` [Example 518, 2,6-dichloro-N-(2-(2-(4-(2-hydroxyethyl)piperazin-1-yl)-6-isopropylpyrimidin-4-ylamino)pyridin-4-yl)benzamide] was tested. Which Ki did it give?
**A.** The Ki was under 3.5 µM.

**Q.** For `CC(C)c1cc(Nc2cc(NC(=O)c3c(Cl)cccc3Cl)ccn2)nc(NCC2CC2)n1` [Example 519, 2,6-dichloro-N-(2-(2-(cyclopropylmethylamino)-6-isopropylpyrimidin-4-ylamino)pyridin-4-yl)benzamide], which Ki is on record?
**A.** The Ki was under 3.5 µM.

**Q.** For `CC(C)c1cc(Nc2cc(NC(=O)c3c(Cl)cccc3Cl)ccn2)nc(N(C)CCO)n1` [Example 520, 2,6-dichloro-N-(2-(2-((2-hydroxyethyl)(methyl)-amino)-6-issopropylpyrimidin-4-ylamino)pyridin-4-yl)benzamide], which Ki is on record?
**A.** The Ki was under 3.5 µM.

**Q.** How did the Ki turn out when `CCc1cc(Nc2cc(NC(=O)c3c(Cl)cccc3Cl)ccn2)nc(N2CCC(O)CC2)n1` [Example 521, 2,6-dichloro-N-(2-(6-ethyl-2-(4-hydroxypiperidin-1-yl)pyrimidin-4-ylamino)pyridin-4-yl)benzamide] was run?
**A.** The Ki was under 3.5 µM.

**Q.** Which Ki does the source give for `CCc1cc(Nc2cc(NC(=O)c3c(Cl)cccc3Cl)ccn2)nc(N2CCN(CCO)CC2)n1` [Example 522, 2,6-dichloro-N-(2-(6-ethyl-2-(4-(2-hydroxyethyl)piperazin-1-yl)pyrimidin-4-ylamino)pyridin-4-yl)benzamide] here?
**A.** Its Ki is under 3.5 µM.

**Q.** With `CCNc1nc(CC)cc(Nc2cc(NC(=O)c3c(Cl)cccc3Cl)ccn2)n1` [Example 523, 2,6-dichloro-N-(2-(6-ethyl-2-(ethylamino)pyrimidin-4-ylamino)pyridin-4-yl)benzamide] as the compound, how does the Ki read?
**A.** The Ki was under 3.5 µM.

**Q.** With `CCc1cc(Nc2cc(NC(=O)c3c(Cl)cccc3Cl)ccn2)nc(NC(C)C)n1` [Example 524, 2,6-dichloro-N-(2-(6-ethyl-2-(isopropylamino)pyrimidin-4-ylamino)pyridin-4-yl)benzamide] as the compound, how does the Ki read?
**A.** Its Ki is under 3.5 µM.

**Q.** With `CCc1cc(Nc2cc(NC(=O)c3c(Cl)cccc3Cl)ccn2)nc(NCCO)n1` [Example 525, 2,6-dichloro-N-(2-(6-ethyl-2-(2-hydroxyethylamino)-pyrimidin-4-ylamino)pyridin-4-yl)benzamide] as the compound, how does the Ki read?
**A.** Its Ki is under 3.5 µM.

**Q.** Which Ki does the source give for `CC(C)c1cc(Nc2cc(NC(=O)c3c(Cl)cccc3Cl)ccn2)nc(N2CCC(O)CC2)n1` [Example 526, 2,6-dichloro-N-(2-(2-(4-hydroxypiperidin-1-yl)-6-isopropylpyrimidin-4-ylamino)pyridin-4-yl)benzamide] here?
**A.** The Ki was under 3.5 µM.

**Q.** For `CC(C)c1cc(Nc2cc(NC(=O)c3c(Cl)cccc3Cl)ccn2)nc(N2CC(O)C2)n1` [Example 527, 2,6-dichloro-N-(2-(2-(3-hydroxyazetidin-1-yl)-6-isopropylpyrimidin-4-ylamino)pyridin-4-yl)benzamide], which Ki is on record?
**A.** Its Ki is under 3.5 µM.

**Q.** `CC(C)Nc1nc(Nc2cc(NC(=O)c3c(Cl)cccc3Cl)ccn2)cc(C(C)C)n1` [Example 528, 2,6-dichloro-N-(2-(6-isopropyl-2-(isopropylamino)pyrimidin-4-ylamino)pyridin-4-yl)benzamide] was tested. Which Ki did it give?
**A.** The Ki was under 3.5 µM.
